Tested on: preterm infants
Test: indicator amino acid oxidation (IAAO) method: phenylalanine requirement in preterm infants
Format: in vivo, human
Text: This example describes the determination of the requirements of the essential amino acid phenylalanine in preterm infants by way of the indicator amino acid oxidation (IAAO) method, and the subsequent definition of the recommended ranges of dietary requirements for this essential amino acid.
In the IAAO method, each infant was fed an amino acid based formula where each essential amino acid was present in excess except the test amino acid phenylalanine. The infant was randomly assigned to receive the test amino acid in an amount ranging from deficient to excess (i.e., each infant was given one specific intake level of the test amino acid for one test period). […]
The IAAO method (Zello, 1993) is based on the concept that when the test amino acid intake is insufficient to meet the infant's requirements, protein synthesis will be limited and all of the amino acids will be oxidised, including the indicator amino acid. Oxidation of the indicator amino acid can be measured in expired air as ^13CO2. […]
Breath samples were collected by means of the direct sampling method described by van der Schoor (2004). […] Expired ^13CO2 enrichment was measured by isotope mass spectrometry (ABCA; Europe Scientific, van Loenen Instruments, Leiden, the Netherlands), and reported in units of atom percent excess (APE). […]

In the case of `N[C@@H](Cc1ccccc1)C(=O)O` [phenylalanine], the “dietary requirement (breakpoint) for phenylalanine” value (16 preterm infants, 24 test intakes 5 to 177 mg/kg/d, [1-13C]lysine indicator oxidation, biphasic linear regression crossover model) is reported as 80 mg/kg/day and the Breakpoint (preterm infants, Table 1) is reported as 80 mg/kg/day.
